Results deposited as PubChem BioAssay AID1224830 (NIAID, 2016)

Screen: 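Host factors that control LPS-induced TNF expression in human macrophages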 (primary screen)
Cell system: human THP-1 monocytic leukaemia cells, TNF dual-luciferase reporter clone, PMA-differentiated to macrophage-like cells
Reagent: siRNA pool against human genes, 50 nM
Timing: LPS for 4 h, given about 3 days after siRNA transfection
Treatment: bacterial LPS (TLR4 ligand), 10 ng/ml
Detection: 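Ratio of firefly to renilla light, scaled to the plate median and expressed as a robust z-score per replicate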
Reading the numbers: TNF reporter robust z-score: higher = stronger TNF reporter response to LPS
Active means: 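a well is active when its z-score exceeds 2.8 or falls below -1.5; control wells carry no call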
This is one part, drawn at random, of about 18,000 deposited reagents. About 2,900 of them (16%) count as active. 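Calls are made per well; low scores hint the gene aids the LPS response, high scores that it dampens it.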 Entries without a mark were called inactive. Repeated entries: four replicate wells of each siRNA pool.

TRIM50 gave TNF reporter robust z-score -0.96.
Knock-down of TRIM50 resulted in: TNF reporter robust z-score -0.18.
With knock-down of TRIM50, the screen gave TNF reporter robust z-score -1.98 (active).
Silencing of TRIM50 gave: TNF reporter robust z-score -0.2.
YARS1 showed TNF reporter robust z-score -1.75 (active).
Depletion of YARS1 resulted in: TNF reporter robust z-score -1.65 (active).
Against YARS1 the deposit lists TNF reporter robust z-score -1.18.
Against YARS1, the entry reads TNF reporter robust z-score -1.25.
CERCAM gave TNF reporter robust z-score 0.63.
For CERCAM the deposit lists TNF reporter robust z-score 0.88.
CERCAM gave TNF reporter robust z-score 0.02.
After knock-down of CERCAM, the record shows TNF reporter robust z-score 1.9.
With knock-down of HYLS1, the screen gave TNF reporter robust z-score 0.08.
HYLS1 scored TNF reporter robust z-score 2.79.
With knock-down of HYLS1, the record shows TNF reporter robust z-score 1.99.
With knock-down of HYLS1 the results were TNF reporter robust z-score 1.23.
Against GLA, the values are TNF reporter robust z-score -1.54 (active).
After knock-down of GLA, the record shows TNF reporter robust z-score -1.15.
After knock-down of GLA, the screen gave TNF reporter robust z-score -1.14.
Depletion of GLA came out at: TNF reporter robust z-score -0.76.
Silencing of EBF3 gave: TNF reporter robust z-score 1.15.
Silencing of EBF3 gave: TNF reporter robust z-score 0.59.
EBF3 scored TNF reporter robust z-score 1.75.
For EBF3, the entry reads TNF reporter robust z-score -0.05.
ZNF22-AS1 gave TNF reporter robust z-score -0.44.
For ZNF22-AS1, the entry reads TNF reporter robust z-score 2.03.
Knock-down of ZNF22-AS1 came out at: TNF reporter robust z-score 1.29.
ZNF22-AS1 showed TNF reporter robust z-score 2.05.
With knock-down of IMMT the results were TNF reporter robust z-score -0.65.
With knock-down of IMMT, the screen gave TNF reporter robust z-score -0.24.
With knock-down of IMMT the results were TNF reporter robust z-score -0.61.
IMMT gave TNF reporter robust z-score 0.42.

Reagents above with an active call:
TRIM50 — TNF reporter robust z-score: -1.98 (active)
YARS1 — TNF reporter robust z-score: -1.75 (active)
YARS1 — TNF reporter robust z-score: -1.65 (active)
GLA — TNF reporter robust z-score: -1.54 (active)
